Experimental data from publication PMC12203675.
Results are given in words; binding and its absence hold for the method and conditions named. Binding seen in cells or lysates may run through a third protein. Here binding means that the protein was enriched with, or labelled near, the bait; the list need not be complete.

Molecular target: T1, OTUD1, bait of the LC-MS/MS interactome screen (UniProt Q5VV17)
T1 sequence: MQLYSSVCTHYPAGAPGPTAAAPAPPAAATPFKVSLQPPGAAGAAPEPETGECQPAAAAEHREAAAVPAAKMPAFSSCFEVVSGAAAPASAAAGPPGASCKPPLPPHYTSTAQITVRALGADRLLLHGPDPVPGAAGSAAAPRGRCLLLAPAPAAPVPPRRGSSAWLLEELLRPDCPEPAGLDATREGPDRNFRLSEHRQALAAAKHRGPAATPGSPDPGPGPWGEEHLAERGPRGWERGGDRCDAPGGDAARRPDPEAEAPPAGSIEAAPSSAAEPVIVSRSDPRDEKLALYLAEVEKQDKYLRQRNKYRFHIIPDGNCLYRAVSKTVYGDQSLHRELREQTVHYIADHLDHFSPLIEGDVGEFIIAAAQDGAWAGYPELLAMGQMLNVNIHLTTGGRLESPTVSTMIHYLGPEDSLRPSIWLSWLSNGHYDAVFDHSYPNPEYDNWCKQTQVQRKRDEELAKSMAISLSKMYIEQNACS
Test: affinity purification with mass spectrometry; co-immunoprecipitation coupled with LC-MS/MS, BMDMs; hits judged by coverage rate, unique peptides and FLAG/IgG ratios

B1: PRDX1 in bone marrow-derived macrophages (protein, UniProt P35700 1-199)
chain: MSSGNAKIGYPAPNFKATAVMPDGQFKDISLSEYKGKYVVFFFYPLDFTFVCPTEIIAFSDRADEFKKLNCQVIGASVDSHFCHLAWINTPKKQGGLGPMNIPLISDPKRTIAQDYGVLKADEGISFRGLFIIDDKGILRQITINDLPVGRSVDEIIRLVQAFQFTDKHGEVCPAGWKPGSDTIKPDVNKSKEYFSKQK
With B1 the binding was “binds”.
